PubChem BioAssay AID1224830 – NIAID, 2016
Shown is one part, drawn at random, of about 18,000 reagents. About 2,900 of all reagents (16%) count as active. 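Calls are made per well; low scores hint the gene aids the LPS response, high scores that it dampens it.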 A number with no mark means an inactive call. Repeated entries: four replicate wells of each siRNA pool.

- Aim: 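Host factors that control LPS-induced TNF expression in human macrophages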 (primary screen)
- Cells: human THP-1 monocytic leukaemia cells, TNF dual-luciferase reporter clone, PMA-differentiated to macrophage-like cells
- Knock-down reagent: siRNA pool against human genes, 50 nM
- Timing: LPS for 4 h, given about 3 days after siRNA transfection
- Challenge: bacterial LPS (TLR4 ligand), 10 ng/ml
- Measured: 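TNF firefly reporter luminescence divided by renilla, normalised to the plate median, then turned into a robust z-score for each replicate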
- Scale: TNF reporter robust z-score: higher = stronger TNF reporter response to LPS
- Call rule: 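Each well counts as active if its z-score is over 2.8 or under -1.5; controls are left without a call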

| Target gene | TNF reporter robust z-score |
| --- | --- |
| SRSF4 (GeneID 6429) | 0.37 |
| SRSF4 (GeneID 6429) | 0.77 |
| SRSF4 (GeneID 6429) | 1.3 |
| SRSF4 (GeneID 6429) | 1.58 |
| VAX2 (GeneID 25806) | -1.08 |
| VAX2 (GeneID 25806) | -1.17 |
| VAX2 (GeneID 25806) | -0.72 |
| VAX2 (GeneID 25806) | -0.08 |
| NOL12 (GeneID 79159) | -0.41 |
| NOL12 (GeneID 79159) | -0.73 |
| NOL12 (GeneID 79159) | -0.14 |
| NOL12 (GeneID 79159) | -0.55 |
| PRPSAP1 (GeneID 5635) | 0.15 |
| PRPSAP1 (GeneID 5635) | 0.3 |
| PRPSAP1 (GeneID 5635) | 0.71 |
| PRPSAP1 (GeneID 5635) | 1.19 |
| CSNK1G3 (GeneID 1456) | 1.63 |
| CSNK1G3 (GeneID 1456) | 0.77 |
| CSNK1G3 (GeneID 1456) | 1.95 |
| CSNK1G3 (GeneID 1456) | 1.37 |
| OR10A2 (GeneID 341276) | -0.75 |
| OR10A2 (GeneID 341276) | -0.29 |
| OR10A2 (GeneID 341276) | -0.34 |
| OR10A2 (GeneID 341276) | -0.82 |
| MAP1LC3A (GeneID 84557) | 0.79 |
| MAP1LC3A (GeneID 84557) | -0.34 |
| MAP1LC3A (GeneID 84557) | -0.3 |
| MAP1LC3A (GeneID 84557) | -0.79 |
| MAPK8IP1 (GeneID 9479) | -0.53 |
| MAPK8IP1 (GeneID 9479) | -0.55 |
| MAPK8IP1 (GeneID 9479) | -0.66 |
| MAPK8IP1 (GeneID 9479) | 0.46 |
| TUBA3E (GeneID 112714) | 0.11 |
| TUBA3E (GeneID 112714) | -0.06 |
| TUBA3E (GeneID 112714) | -0.77 |
| TUBA3E (GeneID 112714) | -0.64 |
| MIGA1 (GeneID 374986) | -0.3 |
| MIGA1 (GeneID 374986) | -0.12 |
| MIGA1 (GeneID 374986) | -0.15 |
| ACP1 (GeneID 52) | 0.77 |
| ACP1 (GeneID 52) | 0.44 |
| ACP1 (GeneID 52) | 0.11 |
| ACP1 (GeneID 52) | 0.31 |
| ARID4A (GeneID 5926) | 0.49 |
| ARID4A (GeneID 5926) | 1.16 |
| ARID4A (GeneID 5926) | 0.19 |
| ARID4A (GeneID 5926) | 0.38 |
| PGAM4 (GeneID 441531) | 0.09 |
| PGAM4 (GeneID 441531) | -0.71 |
| PGAM4 (GeneID 441531) | 0.24 |
| PGAM4 (GeneID 441531) | 0.03 |
| SNUPN (GeneID 10073) | -0.69 |
| SNUPN (GeneID 10073) | -0.75 |
| SNUPN (GeneID 10073) | -0.38 |
| SNUPN (GeneID 10073) | -0.36 |
| CCSER2 (GeneID 54462) | -0.05 |
| CCSER2 (GeneID 54462) | -0.48 |
| CCSER2 (GeneID 54462) | -0.45 |
| TNFAIP6 (GeneID 7130) | -0.01 |
| TNFAIP6 (GeneID 7130) | -0.46 |
| TNFAIP6 (GeneID 7130) | -0.71 |
| TNFAIP6 (GeneID 7130) | 0.11 |
| LRP11 (GeneID 84918) | -1.17 |
| LRP11 (GeneID 84918) | -1.09 |
| LRP11 (GeneID 84918) | -0.68 |
| LRP11 (GeneID 84918) | -1.11 |
| HSPB9 (GeneID 94086) | 4.25 (active) |
| HSPB9 (GeneID 94086) | 1.96 |
| HSPB9 (GeneID 94086) | 1.35 |
| HSPB9 (GeneID 94086) | 0.41 |
| DISP2 (GeneID 85455) | -0.49 |
| DISP2 (GeneID 85455) | 0.05 |
| DISP2 (GeneID 85455) | -0.72 |
| DISP2 (GeneID 85455) | -0.64 |
| DEGS1 (GeneID 8560) | -0.65 |
| DEGS1 (GeneID 8560) | 0.02 |
| DEGS1 (GeneID 8560) | -0.91 |
| DEGS1 (GeneID 8560) | 0 |
| CDR2L (GeneID 30850) | 0.79 |
| CDR2L (GeneID 30850) | 1.33 |
| CDR2L (GeneID 30850) | 0.23 |
| CDR2L (GeneID 30850) | 2.06 |
| SLC25A4 (GeneID 291) | -0.77 |
| SLC25A4 (GeneID 291) | 0.67 |
| SLC25A4 (GeneID 291) | 1.29 |
| SLC25A4 (GeneID 291) | 0.06 |
| ATP5MJ (GeneID 9556) | 6.69 (active) |
| ATP5MJ (GeneID 9556) | 1.45 |
| ATP5MJ (GeneID 9556) | 1.24 |
| ATP5MJ (GeneID 9556) | 1.74 |
| NPPA (GeneID 4878) | 0.03 |
| NPPA (GeneID 4878) | 3.26 (active) |
| NPPA (GeneID 4878) | 0.09 |
| NPPA (GeneID 4878) | 0.39 |
| CYP26A1 (GeneID 1592) | 2.48 |
| CYP26A1 (GeneID 1592) | 2.85 (active) |
| CYP26A1 (GeneID 1592) | 2.46 |
| CYP26A1 (GeneID 1592) | 1.92 |
| TAOK2 (GeneID 9344) | 0.32 |
| TAOK2 (GeneID 9344) | -0.77 |
| TAOK2 (GeneID 9344) | -1.15 |
| TAOK2 (GeneID 9344) | -0.34 |
| GPRC5B (GeneID 51704) | -0.62 |
| GPRC5B (GeneID 51704) | -0.03 |
| GPRC5B (GeneID 51704) | -1.2 |
| GPRC5B (GeneID 51704) | -0.55 |
| MRPS12 (GeneID 6183) | -1.14 |
| MRPS12 (GeneID 6183) | -1.06 |
| MRPS12 (GeneID 6183) | -1.16 |
| MRPS12 (GeneID 6183) | -0.42 |

Quoted from the listing, 7 entries:
| Target gene | TNF reporter robust z-score |
| --- | --- |
| TAOK2 (GeneID 9344) | 0.32 |
| TAOK2 (GeneID 9344) | -0.77 |
| TAOK2 (GeneID 9344) | -1.15 |
| TAOK2 (GeneID 9344) | -0.34 |
| GPRC5B (GeneID 51704) | -0.62 |
| GPRC5B (GeneID 51704) | -0.03 |
| GPRC5B (GeneID 51704) | -1.2 |
